1 molecule from patent US20100099719A1, “COMPOSITION AND METHOD FOR TREATING PROTEINURIA” (DIEREPHARMA, INC., priority 2008, published 2010) can be followed below.

For this series, the system named is streptozotocin-induced diabetic rats. In words: Streptozotocin-induced diabetic nephropathy in rats. Format: in vivo, Sprague-Dawley rats. The method, then: Diabetic kidney disease in the rat was induced by streptozotocin (STZ) to test the effectiveness of 5-methyl-2(1H)-pyridone (AKF-PD) in preserving kidney function by reducing the level of proteinuria.
Diabetic nephropathy was induced in Sprague-Dawley rats with a single intravenous injection of STZ (45 mg/kg). Streptozotocin was injected in a single dose of 45 mg/kg, i.v., to rats (Male Sprague-Dawley rats (200-250 g). Age-matched control rats received citrate buffer and were used in parallel with diabetic animals. Two days after STZ injection, plasma glucose levels were measured. Rats having plasma glucose levels>250 mg/dL after 4 weeks were selected for the study. Control and diabetic rats were divided into two groups, consisting of 6 animals each. AKF-PD was suspended in 0.5% sodium carboxy methylcellulose (CMC). From 4 to 8 weeks after the initial STZ injection, the first group of control animals received vehicle, and the second group received a suspension of AKF-PD (500 mg/kg per day) orally. Similarly, one group of diabetic rats received vehicle and the second group received AKF-PD (500 mg/kg per day). At the end of 8th week, rats were kept individually in metabolic cages for 24 h to collect urine for the measurements. Renal function was assessed by measuring plasma and urine levels of creatinine and urea and urine albumin excretion. Plasma glucose levels were also measured at 4 weeks and at the end of the experiment to investigate the effect of AKF-PD on glucose levels. Urinary proteins were measured by Bio-Rad protein assay (Bio-Rad, Hercules, Calif.). Blood urea nitrogen and creatinine levels were measured using Beckman analyzers (BUN Analyzer II, and Creatinine Analyzer II Beckman Instruments Inc., Brea, Calif.).

The mark [1] stands for this setting: DN (diabetic) rats + AKF-PD 500 mg/kg per day p.o., 4 weeks, mean ± SEM (n = 6).
Where [2] appears, read: control rats + AKF-PD 500 mg/kg per day p.o., 4 weeks, mean ± SEM (n = 6).

Consider `Cc1ccc(=O)n(-c2cccc(F)c2)c1` [AKF-PD, 1-(3′-Fluorophenyl)-5-Methyl-2(1H)-Pyridone], for which the “plasma glucose levels and bodyweight” value (500 mg/kg per day from 4 to 8 weeks, control or diabetic rats) is “did not alter”. Besides, under setting [1], the Bodyweight is 192.82 ± 3.91 g and the Plasma glucose levels is 440.25 ± 9.55 mg/dL. Further, where the note is “control rats + AKF-PD 500 mg/kg per day p.o., 4 weeks, 24 h urine, mean ± SEM (n = 6)”, the Urine output is 11.15 ± 0.75 mL. Besides, under setting [2], the Blood urea nitrogen was determined as 13.58 ± 0.79 mg/dL, the Bodyweight stood at 240.35 ± 4.20 g, the Plasma glucose levels is given as 117.00 ± 6.10 mg/dL and the Serum creatinine turned out to be 0.36 ± 0.02 mg/dL. In addition, under setting [2], the Urinary albumin excretion worked out at 3.26 ± 0.25 mg/dL.
